In the supplement of paper PMC10849652:
The list shows a part of the results.

Chains of the proteins cited; added tags and fusions are not shown. Lines headed by an entry give the natural chain unless they say otherwise; changes in a name come on top.
UniProt Q8N4P2: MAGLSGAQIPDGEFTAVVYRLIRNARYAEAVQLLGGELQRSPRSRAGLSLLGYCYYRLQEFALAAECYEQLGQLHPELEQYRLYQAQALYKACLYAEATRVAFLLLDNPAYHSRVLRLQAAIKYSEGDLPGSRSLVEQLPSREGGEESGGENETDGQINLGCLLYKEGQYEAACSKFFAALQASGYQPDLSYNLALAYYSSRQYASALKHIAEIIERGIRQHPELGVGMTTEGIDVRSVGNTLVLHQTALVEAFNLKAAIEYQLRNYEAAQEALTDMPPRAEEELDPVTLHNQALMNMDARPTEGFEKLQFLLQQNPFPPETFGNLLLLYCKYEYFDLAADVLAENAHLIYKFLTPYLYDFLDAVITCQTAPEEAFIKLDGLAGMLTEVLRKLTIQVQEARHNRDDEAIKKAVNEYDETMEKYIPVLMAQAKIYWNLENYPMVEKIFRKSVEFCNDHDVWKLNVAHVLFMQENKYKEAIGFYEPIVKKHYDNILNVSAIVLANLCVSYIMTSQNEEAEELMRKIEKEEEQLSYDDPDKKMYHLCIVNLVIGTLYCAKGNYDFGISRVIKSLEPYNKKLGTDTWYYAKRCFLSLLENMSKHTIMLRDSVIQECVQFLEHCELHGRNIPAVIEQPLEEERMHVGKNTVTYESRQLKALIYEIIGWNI
UniProt Q99576: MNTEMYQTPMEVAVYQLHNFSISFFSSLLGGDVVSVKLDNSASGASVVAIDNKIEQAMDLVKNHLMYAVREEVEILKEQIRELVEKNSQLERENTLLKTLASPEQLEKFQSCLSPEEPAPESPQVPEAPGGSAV
UniProt Q15035: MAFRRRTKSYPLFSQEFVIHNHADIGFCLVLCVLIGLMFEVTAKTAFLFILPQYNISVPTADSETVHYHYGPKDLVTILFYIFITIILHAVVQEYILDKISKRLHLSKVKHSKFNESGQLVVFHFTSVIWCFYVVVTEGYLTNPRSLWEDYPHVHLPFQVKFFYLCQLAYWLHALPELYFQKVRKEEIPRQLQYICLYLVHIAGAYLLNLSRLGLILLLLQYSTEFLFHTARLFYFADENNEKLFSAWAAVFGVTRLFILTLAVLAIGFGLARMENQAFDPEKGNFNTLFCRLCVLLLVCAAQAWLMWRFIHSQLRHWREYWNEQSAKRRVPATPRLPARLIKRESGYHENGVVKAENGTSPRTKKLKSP
UniProt Q8TDR0: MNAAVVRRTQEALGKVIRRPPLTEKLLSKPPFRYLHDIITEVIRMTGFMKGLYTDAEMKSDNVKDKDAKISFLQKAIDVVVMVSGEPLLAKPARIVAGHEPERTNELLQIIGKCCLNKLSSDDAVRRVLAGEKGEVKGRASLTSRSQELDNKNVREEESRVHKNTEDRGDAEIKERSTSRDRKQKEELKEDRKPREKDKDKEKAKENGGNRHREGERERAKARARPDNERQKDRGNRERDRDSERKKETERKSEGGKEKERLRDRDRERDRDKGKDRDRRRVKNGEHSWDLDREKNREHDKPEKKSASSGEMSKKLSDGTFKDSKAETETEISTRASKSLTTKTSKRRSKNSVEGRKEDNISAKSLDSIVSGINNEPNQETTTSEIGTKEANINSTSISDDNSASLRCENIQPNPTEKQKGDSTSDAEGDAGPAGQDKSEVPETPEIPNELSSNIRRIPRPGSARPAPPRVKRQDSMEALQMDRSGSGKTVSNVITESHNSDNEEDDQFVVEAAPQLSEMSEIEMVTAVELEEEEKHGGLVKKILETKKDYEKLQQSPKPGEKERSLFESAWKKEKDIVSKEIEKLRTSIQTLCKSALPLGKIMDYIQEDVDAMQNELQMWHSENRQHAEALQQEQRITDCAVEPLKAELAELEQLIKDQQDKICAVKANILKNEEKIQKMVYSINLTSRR
UniProt P53804: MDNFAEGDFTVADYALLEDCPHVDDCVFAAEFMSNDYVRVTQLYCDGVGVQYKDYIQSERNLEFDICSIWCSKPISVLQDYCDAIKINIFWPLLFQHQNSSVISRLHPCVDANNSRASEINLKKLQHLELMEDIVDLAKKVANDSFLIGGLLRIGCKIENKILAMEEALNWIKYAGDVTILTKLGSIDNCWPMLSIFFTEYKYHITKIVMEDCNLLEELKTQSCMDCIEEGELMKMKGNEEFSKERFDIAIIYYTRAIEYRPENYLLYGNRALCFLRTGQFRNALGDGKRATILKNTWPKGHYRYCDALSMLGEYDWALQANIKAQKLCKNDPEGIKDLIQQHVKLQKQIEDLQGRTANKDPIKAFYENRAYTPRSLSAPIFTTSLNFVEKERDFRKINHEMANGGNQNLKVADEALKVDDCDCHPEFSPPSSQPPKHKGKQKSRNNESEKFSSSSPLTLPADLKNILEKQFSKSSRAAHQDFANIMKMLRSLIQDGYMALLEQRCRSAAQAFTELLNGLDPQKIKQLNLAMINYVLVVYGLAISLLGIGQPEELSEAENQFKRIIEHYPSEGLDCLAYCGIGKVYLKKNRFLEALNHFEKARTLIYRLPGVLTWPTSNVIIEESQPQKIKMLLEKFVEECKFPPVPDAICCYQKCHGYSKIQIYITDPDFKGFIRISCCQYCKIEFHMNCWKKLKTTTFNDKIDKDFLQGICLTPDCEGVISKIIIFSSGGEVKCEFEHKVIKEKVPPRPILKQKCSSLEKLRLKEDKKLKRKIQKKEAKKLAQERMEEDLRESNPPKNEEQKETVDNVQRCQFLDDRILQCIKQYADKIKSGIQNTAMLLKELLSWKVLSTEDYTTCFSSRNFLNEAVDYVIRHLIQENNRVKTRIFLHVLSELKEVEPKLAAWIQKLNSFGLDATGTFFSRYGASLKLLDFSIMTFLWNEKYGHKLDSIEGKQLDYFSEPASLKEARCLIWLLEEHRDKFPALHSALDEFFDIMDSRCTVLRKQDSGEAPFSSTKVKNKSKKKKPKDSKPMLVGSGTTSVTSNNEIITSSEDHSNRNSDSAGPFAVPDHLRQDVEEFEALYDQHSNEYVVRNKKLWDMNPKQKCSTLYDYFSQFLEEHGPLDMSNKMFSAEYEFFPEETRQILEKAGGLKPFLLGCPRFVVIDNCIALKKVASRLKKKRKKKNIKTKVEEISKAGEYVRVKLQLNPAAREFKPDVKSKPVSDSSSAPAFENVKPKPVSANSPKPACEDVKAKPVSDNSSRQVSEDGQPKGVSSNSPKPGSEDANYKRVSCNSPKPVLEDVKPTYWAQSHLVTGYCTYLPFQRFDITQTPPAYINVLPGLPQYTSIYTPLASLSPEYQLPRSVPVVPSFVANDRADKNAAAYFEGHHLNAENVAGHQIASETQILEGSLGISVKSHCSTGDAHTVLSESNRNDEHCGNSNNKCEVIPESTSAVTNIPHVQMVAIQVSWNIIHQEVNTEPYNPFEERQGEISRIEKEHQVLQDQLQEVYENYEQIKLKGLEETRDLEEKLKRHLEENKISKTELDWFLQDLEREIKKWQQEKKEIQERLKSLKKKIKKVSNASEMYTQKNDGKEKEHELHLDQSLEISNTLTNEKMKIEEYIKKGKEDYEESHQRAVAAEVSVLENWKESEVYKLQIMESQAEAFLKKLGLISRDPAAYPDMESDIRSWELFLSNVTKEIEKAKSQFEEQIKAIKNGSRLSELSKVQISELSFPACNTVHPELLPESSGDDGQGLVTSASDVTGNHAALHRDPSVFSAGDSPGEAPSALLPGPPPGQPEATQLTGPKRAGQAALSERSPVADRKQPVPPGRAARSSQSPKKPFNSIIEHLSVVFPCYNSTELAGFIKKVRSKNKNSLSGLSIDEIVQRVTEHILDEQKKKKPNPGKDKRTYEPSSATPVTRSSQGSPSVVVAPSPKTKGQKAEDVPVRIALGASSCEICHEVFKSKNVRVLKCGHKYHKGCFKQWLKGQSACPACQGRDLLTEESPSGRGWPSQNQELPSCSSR
UniProt Q96RU7: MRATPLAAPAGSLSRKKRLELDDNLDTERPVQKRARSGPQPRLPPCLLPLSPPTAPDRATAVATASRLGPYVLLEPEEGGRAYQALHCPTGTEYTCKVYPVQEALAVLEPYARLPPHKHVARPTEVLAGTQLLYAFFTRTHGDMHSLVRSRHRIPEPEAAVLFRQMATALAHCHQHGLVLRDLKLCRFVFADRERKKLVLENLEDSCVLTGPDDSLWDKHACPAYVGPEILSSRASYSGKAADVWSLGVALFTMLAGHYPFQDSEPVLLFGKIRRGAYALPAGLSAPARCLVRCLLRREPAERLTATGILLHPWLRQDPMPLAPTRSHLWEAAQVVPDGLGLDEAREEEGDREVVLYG
UniProt Q12899: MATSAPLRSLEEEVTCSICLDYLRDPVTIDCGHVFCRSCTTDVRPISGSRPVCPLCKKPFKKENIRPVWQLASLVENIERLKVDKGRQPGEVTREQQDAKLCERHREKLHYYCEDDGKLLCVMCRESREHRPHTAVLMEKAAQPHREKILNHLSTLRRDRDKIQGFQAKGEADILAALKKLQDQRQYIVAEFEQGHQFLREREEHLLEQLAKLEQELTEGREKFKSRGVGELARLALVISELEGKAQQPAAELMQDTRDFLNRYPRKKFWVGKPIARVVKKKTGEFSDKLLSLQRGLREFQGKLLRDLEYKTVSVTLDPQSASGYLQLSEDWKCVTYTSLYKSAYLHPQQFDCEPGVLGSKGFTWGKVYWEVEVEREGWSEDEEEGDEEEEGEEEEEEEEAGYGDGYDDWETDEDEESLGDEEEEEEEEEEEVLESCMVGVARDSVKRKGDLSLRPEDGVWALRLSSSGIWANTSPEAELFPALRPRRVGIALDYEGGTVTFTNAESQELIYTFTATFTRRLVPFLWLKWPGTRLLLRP
UniProt Q15361: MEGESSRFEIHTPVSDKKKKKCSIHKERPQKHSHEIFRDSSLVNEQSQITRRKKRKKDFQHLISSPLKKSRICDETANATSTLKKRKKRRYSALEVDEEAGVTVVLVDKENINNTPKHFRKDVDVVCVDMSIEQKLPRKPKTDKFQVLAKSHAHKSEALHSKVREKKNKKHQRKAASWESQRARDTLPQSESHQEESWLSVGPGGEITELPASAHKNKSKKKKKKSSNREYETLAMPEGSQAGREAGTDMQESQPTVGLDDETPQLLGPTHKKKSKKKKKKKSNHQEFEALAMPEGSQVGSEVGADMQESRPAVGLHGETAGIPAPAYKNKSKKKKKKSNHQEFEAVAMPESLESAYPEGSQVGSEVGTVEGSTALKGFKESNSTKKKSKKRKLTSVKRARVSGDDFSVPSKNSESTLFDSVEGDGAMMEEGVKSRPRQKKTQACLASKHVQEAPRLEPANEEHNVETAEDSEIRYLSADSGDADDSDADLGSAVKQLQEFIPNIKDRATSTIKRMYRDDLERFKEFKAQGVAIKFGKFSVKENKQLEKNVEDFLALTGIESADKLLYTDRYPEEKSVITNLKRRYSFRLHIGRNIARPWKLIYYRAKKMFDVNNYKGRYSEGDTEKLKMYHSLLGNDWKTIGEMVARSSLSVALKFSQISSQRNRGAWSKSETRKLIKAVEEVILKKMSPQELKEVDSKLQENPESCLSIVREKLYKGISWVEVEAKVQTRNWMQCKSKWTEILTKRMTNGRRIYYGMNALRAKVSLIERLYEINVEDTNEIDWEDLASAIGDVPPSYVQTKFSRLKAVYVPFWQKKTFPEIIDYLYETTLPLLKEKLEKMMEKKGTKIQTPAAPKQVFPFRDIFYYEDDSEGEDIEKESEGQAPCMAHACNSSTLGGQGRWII
UniProt O14817: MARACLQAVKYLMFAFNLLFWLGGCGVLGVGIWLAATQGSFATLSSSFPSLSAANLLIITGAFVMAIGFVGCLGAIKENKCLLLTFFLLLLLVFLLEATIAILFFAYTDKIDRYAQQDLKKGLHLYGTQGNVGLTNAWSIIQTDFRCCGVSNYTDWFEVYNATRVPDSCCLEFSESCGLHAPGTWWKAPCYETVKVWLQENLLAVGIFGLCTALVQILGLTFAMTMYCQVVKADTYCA

What was measured:
Test in all cases: log2 fold change, soluble protein after heating vs DMSO (PISA); higher = thermal stabilisation; K562 lysate, 10 uM; active = over 0.2 and 3.5 SD of the protein, either way, in both replicates (recomputed)
alvocidib = compound: CN1CC[C@H](c2c(O)cc(O)c3c(=O)cc(-c4ccccc4Cl)oc23)[C@H](O)C1 [alvocidib]
Summary of the method: (§1)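 The values are log-two fold changes in thermal stability compared with solvent controls and come from duplicates. They were obtained by TMTpro 16plex LC-MS/MS, with channel sums equalised, on the supernatant after 21,000xg for 90 min. That supernatant came from crude K562 extract at 1 mg/mL protein treated with 10 μM compound for 30 min, heated for 3 min across 48°C-58°C, pooled and brought to 0.5% NP-40 at 4°C.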

defactinib = compound: CNC(=O)c1ccc(Nc2ncc(C(F)(F)F)c(NCc3nccnc3N(C)S(C)(=O)=O)n2)cc1 [defactinib]
Summary of the method: as §1

encorafenib = compound: COC(=O)N[C@@H](C)CNc1nccc(-c2cn(C(C)C)nc2-c2cc(Cl)cc(NS(C)(=O)=O)c2F)n1 [encorafenib]
Summary of the method: as §1

[1] = compound: COC(=O)[C@H](CCSC)NC(=O)C1=C(C=C(C=C1)NC[C@H](CS)N)C2=CC=CC=C2
Summary of the method: as §1

crizotinib = compound: C[C@@H](Oc1cc(-c2cnn(C3CCNCC3)c2)cnc1N)c1c(Cl)ccc(F)c1Cl [crizotinib]
Summary of the method: as §1

[2] = compound: C[C@H](C1=CC=C(C=C1)C(=O)NC2=C3C=CNC3=NC=C2)N
Summary of the method: as §1

gandotinib = compound: Cc1cc(Nc2cc(CN3CCOCC3)c3nc(C)c(Cc4ccc(Cl)cc4F)n3n2)n[nH]1 [gandotinib]
Summary of the method: as §1

tozasertib = compound: Cc1cc(Nc2cc(N3CCN(C)CC3)nc(Sc3ccc(NC(=O)C4CC4)cc3)n2)n[nH]1 [tozasertib]
Summary of the method: as §1

doramapimod = compound: Cc1ccc(-n2nc(C(C)(C)C)cc2NC(=O)Nc2ccc(OCCN3CCOCC3)c3ccccc23)cc1 [doramapimod]
Summary of the method: as §1

[3] = compound: Cc1cccc(CC(=O)N2CCc3c2ccc(-c2cn(C)c4ncnc(N)c24)c3F)n1
Summary of the method: as §1

Tubastatin A = compound: CN1CCc2c(c3ccccc3n2Cc2ccc(C(=O)NO)cc2)C1 [Tubastatin A]
Summary of the method: as §1

[4] = compound: CNC(=O)C1=CC=CC=C1NC2=NC(=NC=C2Cl)NC3=C(C=C(C=C3)N4CCOCC4)OC
Summary of the method: as §1

[5] = compound: CNc1nc(-c2ccc3c(N)n[nH]c3c2)cc(N2C[C@@H](C(=O)NC3CCCCC3)CC[C@H]2C)n1
Summary of the method: as §1

[6] = compound: COc1cc2nc(-c3cc(F)ccc3O)nc(N[C@@H]3CNC[C@H]3C(C)(C)O)c2cc1OC
Summary of the method: as §1

lapatinib = compound: CS(=O)(=O)CCNCc1ccc(-c2ccc3ncnc(Nc4ccc(OCc5cccc(F)c5)c(Cl)c4)c3c2)o1 [lapatinib]
Summary of the method: as §1

pictilisib = compound: CS(=O)(=O)N1CCN(Cc2cc3nc(-c4cccc5[nH]ncc45)nc(N4CCOCC4)c3s2)CC1 [pictilisib]
Summary of the method: as §1

duvelisib = compound: C[C@H](Nc1ncnc2nc[nH]c12)c1cc2cccc(Cl)c2c(=O)n1-c1ccccc1 [duvelisib]
Summary of the method: as §1

bafetinib = compound: Cc1ccc(NC(=O)c2ccc(CN3CC[C@H](N(C)C)C3)c(C(F)(F)F)c2)cc1Nc1nccc(-c2cncnc2)n1 [bafetinib]
Summary of the method: as §1

alisertib = compound: COc1cc(Nc2ncc3c(n2)-c2ccc(Cl)cc2C(c2c(F)cccc2OC)=NC3)ccc1C(=O)O [alisertib]
Summary of the method: as §1

gefitinib = compound: COc1cc2ncnc(Nc3ccc(F)c(Cl)c3)c2cc1OCCCN1CCOCC1 [gefitinib]
Summary of the method: as §1

Measured: log2 fold change

TTC30B (UniProt Q8N4P2)
inactive: alvocidib 0.103 | defactinib 0.283 | encorafenib -0.069 | [1] 0.43 | crizotinib -0.024 | [2] 0.045 | gandotinib -0.15 | tozasertib -0.066 | doramapimod 0.003 | [3] 0.162

TSC22D3 isoform 3 (UniProt Q99576)
inactive: Tubastatin A -0.553 | [4] 0.162 | crizotinib 0.101 | doramapimod -0.065

TTC39B (UniProt Q5VTQ0)
inactive: Tubastatin A -0.03 | [4] -0.095 | defactinib 0.112 | [5] -0.145 | [6] 0.005 | lapatinib -0.093 | pictilisib 0.003 | duvelisib 0.173 | bafetinib -0.182

TRAM2 (UniProt Q15035)
inactive: Tubastatin A -0.039 | [6] -0.111 | lapatinib -0.264 | crizotinib 0.01 | doramapimod -0.126

TRAF3IP1 (UniProt Q8TDR0)
inactive: Tubastatin A 0.014 | [4] -0.064 | defactinib -0.009 | [5] -0.166 | encorafenib 0.079 | [1] -0.065 | [6] -0.017 | lapatinib 0.011 | pictilisib -0.032 | crizotinib 0.093 | duvelisib 0.112 | tozasertib 0.039 | doramapimod -0.044 | bafetinib -0.124

TTC3 (UniProt P53804)
inactive: Tubastatin A -0.04 | [4] 0.017 | [5] -0.075 | alisertib -0.203 | gefitinib 0.174 | duvelisib 0.097

TRIB3 (UniProt Q96RU7)
inactive: [4] -0.038 | [5] -0.218 | encorafenib -0.019 | [1] -0.042 | duvelisib 0.098 | tozasertib -0.137

TRIM26 (UniProt Q12899)
inactive: Tubastatin A 0.151 | alisertib 0.158 | [6] -0.231 | gefitinib -0.067 | lapatinib 0.097 | crizotinib -0.28 | doramapimod 0.099

TTF1 (UniProt Q15361)
inactive: encorafenib 0.339 | [1] 0.3 | alisertib -0.024 | gefitinib -0.151 | tozasertib -0.136

TSPAN4 (UniProt O14817)
inactive: Tubastatin A -0.064 | [4] 0.098 | defactinib 0.015 | encorafenib 0.029 | [1] 0.075 | crizotinib 0.013 | tozasertib -0.012 | doramapimod 0.012
